We go through three molecules from publication PMC6606597.

Amino acid sequences for entries named in this document (tags omitted).
UniProt Q9WVL2: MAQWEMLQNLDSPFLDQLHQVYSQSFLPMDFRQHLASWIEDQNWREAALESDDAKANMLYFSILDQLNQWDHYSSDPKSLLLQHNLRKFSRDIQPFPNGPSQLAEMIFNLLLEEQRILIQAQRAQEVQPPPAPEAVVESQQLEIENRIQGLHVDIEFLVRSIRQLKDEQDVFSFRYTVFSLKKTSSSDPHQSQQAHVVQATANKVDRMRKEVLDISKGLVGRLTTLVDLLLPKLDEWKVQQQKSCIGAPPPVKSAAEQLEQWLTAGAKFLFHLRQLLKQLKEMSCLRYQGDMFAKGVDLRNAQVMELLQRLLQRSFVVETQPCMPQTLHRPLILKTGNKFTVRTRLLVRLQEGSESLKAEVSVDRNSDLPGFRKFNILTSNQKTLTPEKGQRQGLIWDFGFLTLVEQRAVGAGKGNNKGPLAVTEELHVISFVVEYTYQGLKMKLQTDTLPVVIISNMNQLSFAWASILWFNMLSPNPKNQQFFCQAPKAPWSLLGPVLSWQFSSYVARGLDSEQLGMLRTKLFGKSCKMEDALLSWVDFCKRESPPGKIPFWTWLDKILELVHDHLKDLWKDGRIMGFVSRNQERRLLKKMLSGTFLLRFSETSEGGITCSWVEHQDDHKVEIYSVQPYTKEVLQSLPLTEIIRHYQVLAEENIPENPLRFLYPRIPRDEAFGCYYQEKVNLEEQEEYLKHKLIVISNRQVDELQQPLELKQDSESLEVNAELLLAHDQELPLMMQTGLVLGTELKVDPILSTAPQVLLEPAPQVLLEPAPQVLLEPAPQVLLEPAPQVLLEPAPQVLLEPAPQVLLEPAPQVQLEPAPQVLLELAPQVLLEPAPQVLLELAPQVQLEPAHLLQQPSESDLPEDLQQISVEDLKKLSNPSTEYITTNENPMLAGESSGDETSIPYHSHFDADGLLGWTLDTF
UniProt Q8CHI8: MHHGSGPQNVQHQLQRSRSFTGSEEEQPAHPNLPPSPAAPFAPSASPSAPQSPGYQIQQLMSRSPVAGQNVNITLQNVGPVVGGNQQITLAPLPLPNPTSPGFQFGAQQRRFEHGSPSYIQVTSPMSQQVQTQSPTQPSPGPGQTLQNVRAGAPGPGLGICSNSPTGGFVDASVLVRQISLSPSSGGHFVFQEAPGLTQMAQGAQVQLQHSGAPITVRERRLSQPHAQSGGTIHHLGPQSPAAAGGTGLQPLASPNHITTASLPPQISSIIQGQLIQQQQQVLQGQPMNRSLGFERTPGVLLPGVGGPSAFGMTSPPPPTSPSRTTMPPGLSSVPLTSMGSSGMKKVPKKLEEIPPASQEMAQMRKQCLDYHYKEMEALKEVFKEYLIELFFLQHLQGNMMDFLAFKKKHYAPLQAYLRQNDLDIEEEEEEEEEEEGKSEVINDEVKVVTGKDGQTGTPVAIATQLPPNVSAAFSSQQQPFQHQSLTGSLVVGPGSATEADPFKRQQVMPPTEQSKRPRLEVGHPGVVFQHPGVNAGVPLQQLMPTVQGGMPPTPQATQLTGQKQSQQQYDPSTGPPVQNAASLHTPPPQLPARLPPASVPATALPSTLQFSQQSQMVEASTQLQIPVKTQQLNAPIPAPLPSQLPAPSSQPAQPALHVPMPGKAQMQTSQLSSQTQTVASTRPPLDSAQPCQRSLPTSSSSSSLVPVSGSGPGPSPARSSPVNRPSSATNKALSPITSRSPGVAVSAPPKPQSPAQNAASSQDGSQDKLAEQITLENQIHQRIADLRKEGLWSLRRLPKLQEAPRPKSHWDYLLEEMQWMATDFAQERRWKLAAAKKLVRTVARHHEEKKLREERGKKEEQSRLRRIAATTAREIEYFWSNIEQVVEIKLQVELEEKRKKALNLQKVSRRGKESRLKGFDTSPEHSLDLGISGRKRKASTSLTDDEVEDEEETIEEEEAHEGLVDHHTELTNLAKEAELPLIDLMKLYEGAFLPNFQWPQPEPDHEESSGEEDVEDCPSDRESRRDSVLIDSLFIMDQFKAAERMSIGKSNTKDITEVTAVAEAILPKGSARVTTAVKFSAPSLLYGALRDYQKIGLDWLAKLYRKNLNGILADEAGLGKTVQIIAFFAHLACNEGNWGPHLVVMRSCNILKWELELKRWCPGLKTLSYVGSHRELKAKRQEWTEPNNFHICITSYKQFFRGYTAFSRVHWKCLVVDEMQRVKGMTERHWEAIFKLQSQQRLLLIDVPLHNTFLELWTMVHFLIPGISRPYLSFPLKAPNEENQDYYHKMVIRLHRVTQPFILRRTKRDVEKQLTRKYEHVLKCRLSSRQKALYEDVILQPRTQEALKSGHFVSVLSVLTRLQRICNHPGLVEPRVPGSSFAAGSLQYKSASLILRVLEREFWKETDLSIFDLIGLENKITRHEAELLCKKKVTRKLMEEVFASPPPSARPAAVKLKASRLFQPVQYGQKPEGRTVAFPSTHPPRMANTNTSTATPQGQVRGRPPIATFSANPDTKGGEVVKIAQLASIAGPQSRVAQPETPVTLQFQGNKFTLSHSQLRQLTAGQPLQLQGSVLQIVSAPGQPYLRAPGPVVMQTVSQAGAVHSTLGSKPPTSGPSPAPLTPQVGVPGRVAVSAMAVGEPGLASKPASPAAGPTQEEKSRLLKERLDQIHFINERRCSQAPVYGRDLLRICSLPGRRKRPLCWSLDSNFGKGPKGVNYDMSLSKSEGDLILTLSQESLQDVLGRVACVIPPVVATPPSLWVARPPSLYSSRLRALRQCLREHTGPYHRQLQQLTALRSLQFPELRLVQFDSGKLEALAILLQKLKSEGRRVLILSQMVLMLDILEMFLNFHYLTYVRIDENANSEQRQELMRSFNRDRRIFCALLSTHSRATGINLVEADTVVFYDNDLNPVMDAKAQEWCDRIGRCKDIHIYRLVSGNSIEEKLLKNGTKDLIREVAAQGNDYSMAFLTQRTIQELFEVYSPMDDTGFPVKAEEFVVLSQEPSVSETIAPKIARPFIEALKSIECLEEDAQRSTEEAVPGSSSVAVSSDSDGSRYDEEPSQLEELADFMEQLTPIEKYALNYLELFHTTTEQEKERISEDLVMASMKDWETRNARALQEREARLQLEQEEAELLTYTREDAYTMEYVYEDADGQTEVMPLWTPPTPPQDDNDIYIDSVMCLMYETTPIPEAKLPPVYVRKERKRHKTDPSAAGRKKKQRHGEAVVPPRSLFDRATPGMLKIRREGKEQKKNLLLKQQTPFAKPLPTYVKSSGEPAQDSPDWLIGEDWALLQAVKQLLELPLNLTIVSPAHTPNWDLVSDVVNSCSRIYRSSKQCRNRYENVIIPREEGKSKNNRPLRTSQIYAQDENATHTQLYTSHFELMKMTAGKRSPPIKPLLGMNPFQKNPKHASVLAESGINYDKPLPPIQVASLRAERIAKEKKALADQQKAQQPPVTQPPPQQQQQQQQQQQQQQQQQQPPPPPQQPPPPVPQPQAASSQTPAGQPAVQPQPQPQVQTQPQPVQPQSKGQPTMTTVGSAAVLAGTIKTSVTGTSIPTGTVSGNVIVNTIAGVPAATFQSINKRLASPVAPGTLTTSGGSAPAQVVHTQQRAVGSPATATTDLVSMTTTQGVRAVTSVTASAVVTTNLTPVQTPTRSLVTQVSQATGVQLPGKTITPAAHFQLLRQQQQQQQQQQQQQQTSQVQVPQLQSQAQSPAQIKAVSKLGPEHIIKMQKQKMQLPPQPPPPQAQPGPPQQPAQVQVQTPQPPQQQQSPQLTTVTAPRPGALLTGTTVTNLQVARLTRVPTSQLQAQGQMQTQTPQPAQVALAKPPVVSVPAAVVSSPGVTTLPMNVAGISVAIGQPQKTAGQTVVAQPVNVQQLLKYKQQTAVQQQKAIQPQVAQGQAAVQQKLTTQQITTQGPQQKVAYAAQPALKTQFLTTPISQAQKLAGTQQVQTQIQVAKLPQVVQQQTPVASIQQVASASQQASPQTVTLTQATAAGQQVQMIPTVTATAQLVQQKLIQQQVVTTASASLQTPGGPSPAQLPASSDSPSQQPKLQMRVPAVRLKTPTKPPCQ
UniProt P42227: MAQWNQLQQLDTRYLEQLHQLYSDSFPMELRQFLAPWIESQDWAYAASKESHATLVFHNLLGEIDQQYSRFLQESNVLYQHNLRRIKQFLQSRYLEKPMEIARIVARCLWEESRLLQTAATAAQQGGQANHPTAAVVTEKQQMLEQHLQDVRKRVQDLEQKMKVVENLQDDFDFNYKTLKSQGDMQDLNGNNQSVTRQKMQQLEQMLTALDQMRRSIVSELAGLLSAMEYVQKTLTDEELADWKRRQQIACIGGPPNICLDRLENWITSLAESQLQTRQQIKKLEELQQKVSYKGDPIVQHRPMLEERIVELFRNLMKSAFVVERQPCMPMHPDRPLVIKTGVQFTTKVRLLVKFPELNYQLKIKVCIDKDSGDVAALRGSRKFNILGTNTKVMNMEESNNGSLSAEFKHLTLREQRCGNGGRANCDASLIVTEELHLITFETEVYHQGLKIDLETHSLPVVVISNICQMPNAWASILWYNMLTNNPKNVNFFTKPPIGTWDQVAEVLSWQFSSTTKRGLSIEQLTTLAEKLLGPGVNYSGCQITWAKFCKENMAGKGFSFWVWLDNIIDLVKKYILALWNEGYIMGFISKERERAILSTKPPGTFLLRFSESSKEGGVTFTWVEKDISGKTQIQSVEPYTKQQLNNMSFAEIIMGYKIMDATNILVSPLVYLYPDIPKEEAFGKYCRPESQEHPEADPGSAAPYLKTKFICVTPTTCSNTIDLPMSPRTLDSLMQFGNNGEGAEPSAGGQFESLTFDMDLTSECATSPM

The target of assay [1] is T1, myc-tagged BirA* fusion of IRF9 (mouse) (UniProt Q61179).
T1 sequence: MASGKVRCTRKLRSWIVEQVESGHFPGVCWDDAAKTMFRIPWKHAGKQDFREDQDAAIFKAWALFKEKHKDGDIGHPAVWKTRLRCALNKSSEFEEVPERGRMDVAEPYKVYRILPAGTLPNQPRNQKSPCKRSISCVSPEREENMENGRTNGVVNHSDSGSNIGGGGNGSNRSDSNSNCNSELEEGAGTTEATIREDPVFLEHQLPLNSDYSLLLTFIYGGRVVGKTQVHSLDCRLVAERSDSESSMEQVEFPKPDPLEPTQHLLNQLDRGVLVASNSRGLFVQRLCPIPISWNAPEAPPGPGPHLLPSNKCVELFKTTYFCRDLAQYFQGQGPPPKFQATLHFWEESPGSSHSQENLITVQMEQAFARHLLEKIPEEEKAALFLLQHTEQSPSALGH
Put plainly: proximity labelling; BioID interactome in Raw 264.7 cells expressing myc-BirA* fusions of STAT1, STAT2 or IRF9, resting or IFN-β (2, 18 h) or IFN-γ (2 h); streptavidin affinity purification, shotgun LC-MS, label-free quantification against myc-BirA* or BirA*-NLS controls.

Assay [2] deals with myc-tagged BirA* fusion of STAT2 (mouse) (UniProt Q9WVL2). Put plainly: proximity labelling; BioID in Raw 264.7 cells expressing doxycycline-induced myc-BirA* fusions, 50 µM biotin 18 h; resting cells and cells treated 2 h with IFN-β or IFN-γ (also 18 h IFN-β); streptavidin affinity purification, targeted LC-MS (PRM), normalised to myc-BirA* or NLS-BirA* control.
In assay [3] the target is T1, myc-tagged BirA* fusion of IRF9 (mouse). Described as above.
Assay [4] addresses T2, myc-tagged BirA* fusion of STAT1 (mouse) (UniProt P42225).
T2 sequence: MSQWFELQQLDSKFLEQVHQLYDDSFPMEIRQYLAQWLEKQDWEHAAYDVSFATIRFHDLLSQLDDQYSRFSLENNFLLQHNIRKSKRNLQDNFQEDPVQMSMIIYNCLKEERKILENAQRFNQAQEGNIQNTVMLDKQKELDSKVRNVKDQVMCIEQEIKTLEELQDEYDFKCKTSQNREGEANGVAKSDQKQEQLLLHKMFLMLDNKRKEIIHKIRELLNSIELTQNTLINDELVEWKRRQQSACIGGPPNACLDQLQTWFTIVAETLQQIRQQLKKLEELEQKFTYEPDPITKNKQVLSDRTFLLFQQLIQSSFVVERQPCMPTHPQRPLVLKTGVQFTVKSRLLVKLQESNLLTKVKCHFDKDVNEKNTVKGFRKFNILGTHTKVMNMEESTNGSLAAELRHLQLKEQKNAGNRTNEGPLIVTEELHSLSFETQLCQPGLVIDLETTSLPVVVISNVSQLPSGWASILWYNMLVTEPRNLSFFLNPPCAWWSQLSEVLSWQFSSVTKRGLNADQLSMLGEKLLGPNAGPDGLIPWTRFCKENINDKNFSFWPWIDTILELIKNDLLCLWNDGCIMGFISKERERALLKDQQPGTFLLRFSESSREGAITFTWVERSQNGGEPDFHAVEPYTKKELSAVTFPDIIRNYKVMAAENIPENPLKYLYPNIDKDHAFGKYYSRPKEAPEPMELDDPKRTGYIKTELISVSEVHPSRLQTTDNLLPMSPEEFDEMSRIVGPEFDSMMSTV
The description is as above.

In assay [5] the target is myc-tagged BirA* fusion of STAT2 (mouse) (UniProt Q9WVL2). The description is as above. This is another data set of the same source.

Where two headings read alike, the source gives them in different places. No constants are given. Whether binding was seen depends on the method and setting. Binding seen in cells or lysates may run through a third protein. Here binding means that the protein was enriched with, or labelled near, the bait; the list need not be complete. For some assays here: No binding means not detected with the bait. For some assays here: Tags and fused reporters may be left off the sequences shown.

With “EP400, a subunit of the Tip60/NuA4 chromatin remodeling complex (from UniProt Q8CHI8 1-3072)”, the binding result in assay [1] is listed as “binds”.

“STAT3, endogenous (from UniProt P42227 1-770)”: the values for the binding entry in assay [2], in assay [3] and in assay [4] were “no binding”, “no binding” and “binds”, respectively.

B1: interferon regulatory factor 9 (IRF9), endogenous (protein, UniProt Q61179 1-399)
chain: T1 sequence
Regarding B1, the binding entry in assay [5] is recorded as “binds”.
